Source: patent US20190203210A1
Results are given in words; binding and its absence hold for the method and conditions named. In cells and extracts the contact can be indirect. A yes stands for co-enrichment or nearness to the bait. Other partners may have been found. Tags and fused reporters may be left off the sequences shown.

The chains behind the UniProt entries cited, without tags or fusion partners.
UniProt Q7Z6Z7: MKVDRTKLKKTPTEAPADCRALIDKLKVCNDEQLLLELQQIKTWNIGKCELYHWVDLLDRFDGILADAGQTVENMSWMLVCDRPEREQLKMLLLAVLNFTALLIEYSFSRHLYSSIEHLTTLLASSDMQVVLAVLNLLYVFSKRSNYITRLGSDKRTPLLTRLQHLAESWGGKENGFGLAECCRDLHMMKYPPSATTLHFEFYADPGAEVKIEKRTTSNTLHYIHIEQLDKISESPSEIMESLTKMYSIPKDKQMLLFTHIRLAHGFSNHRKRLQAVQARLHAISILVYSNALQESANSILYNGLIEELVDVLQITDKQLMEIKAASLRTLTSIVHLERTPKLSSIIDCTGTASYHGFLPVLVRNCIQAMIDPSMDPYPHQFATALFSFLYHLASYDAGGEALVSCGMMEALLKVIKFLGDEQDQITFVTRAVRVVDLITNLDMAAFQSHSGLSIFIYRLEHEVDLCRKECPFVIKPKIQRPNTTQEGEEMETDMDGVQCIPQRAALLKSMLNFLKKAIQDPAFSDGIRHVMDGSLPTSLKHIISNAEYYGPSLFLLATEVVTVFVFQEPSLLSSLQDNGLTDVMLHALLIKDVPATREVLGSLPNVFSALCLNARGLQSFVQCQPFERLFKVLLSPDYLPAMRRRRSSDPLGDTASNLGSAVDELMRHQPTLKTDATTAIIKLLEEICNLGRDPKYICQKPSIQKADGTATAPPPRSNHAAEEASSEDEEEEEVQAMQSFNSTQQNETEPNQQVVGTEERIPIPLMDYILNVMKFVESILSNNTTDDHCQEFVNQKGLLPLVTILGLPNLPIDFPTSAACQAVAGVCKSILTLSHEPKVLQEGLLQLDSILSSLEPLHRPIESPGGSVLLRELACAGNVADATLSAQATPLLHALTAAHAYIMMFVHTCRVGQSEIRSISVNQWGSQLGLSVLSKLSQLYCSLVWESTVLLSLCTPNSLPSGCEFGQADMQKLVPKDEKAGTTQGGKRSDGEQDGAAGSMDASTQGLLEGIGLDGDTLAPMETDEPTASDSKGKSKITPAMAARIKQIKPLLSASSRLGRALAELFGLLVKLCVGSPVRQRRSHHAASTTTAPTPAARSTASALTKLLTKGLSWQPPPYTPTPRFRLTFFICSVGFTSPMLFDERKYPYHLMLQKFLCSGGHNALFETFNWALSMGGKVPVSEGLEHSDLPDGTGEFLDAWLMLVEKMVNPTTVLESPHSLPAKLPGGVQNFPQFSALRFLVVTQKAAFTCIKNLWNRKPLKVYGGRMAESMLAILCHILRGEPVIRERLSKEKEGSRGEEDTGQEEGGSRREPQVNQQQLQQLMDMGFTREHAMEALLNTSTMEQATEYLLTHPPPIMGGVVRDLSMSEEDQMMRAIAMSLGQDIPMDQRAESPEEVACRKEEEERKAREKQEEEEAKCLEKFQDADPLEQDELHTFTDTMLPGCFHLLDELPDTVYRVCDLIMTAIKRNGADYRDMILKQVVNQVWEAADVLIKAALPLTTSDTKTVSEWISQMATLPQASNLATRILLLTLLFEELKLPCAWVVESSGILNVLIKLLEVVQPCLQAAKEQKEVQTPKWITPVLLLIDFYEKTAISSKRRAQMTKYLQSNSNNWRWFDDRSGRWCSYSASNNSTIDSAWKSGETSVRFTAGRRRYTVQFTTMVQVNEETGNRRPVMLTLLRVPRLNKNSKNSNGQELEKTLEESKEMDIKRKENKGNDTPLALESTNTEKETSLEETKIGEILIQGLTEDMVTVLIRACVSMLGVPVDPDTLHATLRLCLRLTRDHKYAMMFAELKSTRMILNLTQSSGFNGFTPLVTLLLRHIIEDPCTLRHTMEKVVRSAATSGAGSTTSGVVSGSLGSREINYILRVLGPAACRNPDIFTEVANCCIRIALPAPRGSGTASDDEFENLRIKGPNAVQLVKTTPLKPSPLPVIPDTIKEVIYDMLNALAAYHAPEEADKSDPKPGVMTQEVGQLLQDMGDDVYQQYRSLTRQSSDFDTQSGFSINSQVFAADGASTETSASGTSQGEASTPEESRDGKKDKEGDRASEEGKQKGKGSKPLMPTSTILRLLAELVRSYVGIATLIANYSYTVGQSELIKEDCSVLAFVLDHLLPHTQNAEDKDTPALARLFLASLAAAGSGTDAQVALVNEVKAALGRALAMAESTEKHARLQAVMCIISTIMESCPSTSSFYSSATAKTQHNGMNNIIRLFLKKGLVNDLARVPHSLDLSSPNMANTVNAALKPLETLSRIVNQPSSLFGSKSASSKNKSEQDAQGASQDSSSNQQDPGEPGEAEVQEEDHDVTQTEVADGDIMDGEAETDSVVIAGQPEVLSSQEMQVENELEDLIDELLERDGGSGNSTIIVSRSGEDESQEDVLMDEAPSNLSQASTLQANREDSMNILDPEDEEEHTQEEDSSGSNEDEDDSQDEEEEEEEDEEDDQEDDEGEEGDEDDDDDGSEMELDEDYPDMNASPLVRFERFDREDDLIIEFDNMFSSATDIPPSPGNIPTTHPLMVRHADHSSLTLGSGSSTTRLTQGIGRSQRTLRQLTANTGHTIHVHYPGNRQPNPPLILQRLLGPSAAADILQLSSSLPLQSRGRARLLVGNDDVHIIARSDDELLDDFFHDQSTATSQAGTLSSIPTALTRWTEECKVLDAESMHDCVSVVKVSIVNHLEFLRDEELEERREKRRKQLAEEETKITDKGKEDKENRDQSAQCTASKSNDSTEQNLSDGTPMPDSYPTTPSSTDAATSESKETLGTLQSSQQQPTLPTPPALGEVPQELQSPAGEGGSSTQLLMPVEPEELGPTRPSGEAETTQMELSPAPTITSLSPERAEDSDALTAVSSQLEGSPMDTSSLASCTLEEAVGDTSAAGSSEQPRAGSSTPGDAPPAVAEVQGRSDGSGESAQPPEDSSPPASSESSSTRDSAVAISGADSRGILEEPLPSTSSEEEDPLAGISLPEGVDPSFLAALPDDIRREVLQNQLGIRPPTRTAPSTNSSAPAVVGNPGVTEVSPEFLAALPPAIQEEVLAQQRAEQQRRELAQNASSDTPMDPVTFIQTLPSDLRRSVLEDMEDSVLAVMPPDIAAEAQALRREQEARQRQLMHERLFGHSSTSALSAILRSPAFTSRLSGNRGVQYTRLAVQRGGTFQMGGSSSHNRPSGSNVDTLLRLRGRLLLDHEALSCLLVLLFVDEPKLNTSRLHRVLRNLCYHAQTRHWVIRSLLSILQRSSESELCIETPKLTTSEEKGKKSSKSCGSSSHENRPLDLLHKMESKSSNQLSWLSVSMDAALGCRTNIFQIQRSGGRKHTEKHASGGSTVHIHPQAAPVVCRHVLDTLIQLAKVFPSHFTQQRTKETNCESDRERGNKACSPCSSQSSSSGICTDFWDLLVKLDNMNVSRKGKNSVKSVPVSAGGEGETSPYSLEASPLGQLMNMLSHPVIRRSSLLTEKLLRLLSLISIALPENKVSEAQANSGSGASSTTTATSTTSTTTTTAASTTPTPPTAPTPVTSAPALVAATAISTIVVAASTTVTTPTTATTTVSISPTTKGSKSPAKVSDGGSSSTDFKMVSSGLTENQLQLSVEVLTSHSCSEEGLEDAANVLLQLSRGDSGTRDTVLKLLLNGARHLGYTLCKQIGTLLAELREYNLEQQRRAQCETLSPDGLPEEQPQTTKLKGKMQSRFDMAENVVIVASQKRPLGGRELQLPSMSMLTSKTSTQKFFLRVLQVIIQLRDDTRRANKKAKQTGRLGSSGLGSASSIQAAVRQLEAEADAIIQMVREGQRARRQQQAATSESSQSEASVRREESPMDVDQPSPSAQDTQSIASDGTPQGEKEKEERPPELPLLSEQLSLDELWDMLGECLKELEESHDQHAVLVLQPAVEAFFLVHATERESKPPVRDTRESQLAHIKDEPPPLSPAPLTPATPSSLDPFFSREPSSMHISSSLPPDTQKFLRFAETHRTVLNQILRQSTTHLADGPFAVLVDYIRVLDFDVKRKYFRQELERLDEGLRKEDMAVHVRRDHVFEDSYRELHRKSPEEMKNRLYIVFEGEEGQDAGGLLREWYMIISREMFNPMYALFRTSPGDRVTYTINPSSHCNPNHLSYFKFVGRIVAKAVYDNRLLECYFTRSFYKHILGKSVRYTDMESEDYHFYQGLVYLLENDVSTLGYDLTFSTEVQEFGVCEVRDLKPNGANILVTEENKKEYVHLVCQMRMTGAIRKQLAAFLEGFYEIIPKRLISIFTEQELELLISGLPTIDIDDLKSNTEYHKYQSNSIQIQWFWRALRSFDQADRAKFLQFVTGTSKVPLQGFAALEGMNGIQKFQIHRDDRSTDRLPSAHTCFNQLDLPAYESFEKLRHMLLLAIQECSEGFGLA

Target: T1, FLAG-HA-Atoh1 (UniProt Q92858)
T1 sequence (looked up): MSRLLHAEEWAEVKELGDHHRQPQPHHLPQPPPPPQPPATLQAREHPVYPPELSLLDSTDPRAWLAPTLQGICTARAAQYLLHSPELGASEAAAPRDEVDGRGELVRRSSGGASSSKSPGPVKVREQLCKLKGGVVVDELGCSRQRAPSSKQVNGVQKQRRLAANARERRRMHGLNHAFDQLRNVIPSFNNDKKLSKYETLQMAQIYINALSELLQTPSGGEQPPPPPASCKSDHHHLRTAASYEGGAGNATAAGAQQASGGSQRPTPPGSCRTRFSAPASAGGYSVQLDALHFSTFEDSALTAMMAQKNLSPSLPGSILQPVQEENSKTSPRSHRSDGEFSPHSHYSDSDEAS
Assay: IP, gel band at 450 kDa, mass spectrometry

binding: binds
Substance: HECT, UBA and WWE domain containing 1 (Huwe1) protein (from UniProt Q7Z6Z7 1-4374) (enzyme)
